# Test results as given in patent US9381193B2, “Contraceptive methods and compositions” (WASHINGTON UNIVERSITY, priority 2011, dated 2016).
# Experiments:
# Format in all cases: in vivo, mouse
# FVB/NJ mice [1] = test: Ovarian histology and follicle counts in DHEA-fed mice
# Text: (§1) Female FVB/NJ mice were obtained from Jackson Laboratories (Bar Harbor, Me., USA). Regular rodent chow was supplemented with DHEA at 0.01%, 0.1% and 0.6% w/w. Three-week-old mice had access to food and water ad libitum. Mice were fed control or DHEA-supplemented chow for two weeks. The Animal Studies Committee at Washington University School of Medicine reviewed and approved all animal experiments. Animals were maintained according to the Guide for the Care and Use of Laboratory Animals provided by the Institute for Laboratory Animal Research.
# For histological evaluation, one ovary from five mice in each group was fixed in Bouin's solution, transferred to 70% ethanol then embedded in paraffin and serial sectioned at 10 microns. Every tenth section was kept and stained with hematoxylin and eosin. Follicles with visible nuclei were classified as primordial, primary, secondary or antral. Corpora lutea were also counted. Follicle counts from each classification were summed for each mouse.
# FVB/NJ mice [2] = test: Artificially induced deciduoma in ovariectomized mice
# Description: This induced deciduoma model allowed the study of the effect of increased DHEA on implantation independently of embryo development and ovarian function. Female mice 6-8 weeks of age were ovariectomized and rested for 2 weeks. […] At day 2 before induction, the experimental mice also began receiving DHEA at 2 mg/100 g of body weight. The control mice received no DHEA. At day 0, one uterine horn in each animal was subjected to a physical stimulus, 100 μL sesame seed oil injection, to induce a deciduoma. The second horn was left as the unstimulated internal control for each mouse. Day 0 in this case is equivalent to the day of embryo implantation in a physiological mouse pregnancy, which is 4 days post coitus. Five days after the oil injection, uterine horns were dissected out. First the gross anatomies of the uteri were assessed. […] In the same line of experiments, the serum hormone levels were also measured to confirm that findings were strictly the result of increased levels of DHEA.
# Decidualization in vivo under chronically elevated levels of DHEA was also tested. […] A quantitative analysis of the decidual reaction in shown in FIG. 8B, where the mass of the uterine horns is shown. […]
# To generate deciduomas 7-8 wk-old female FVB/NJ mice were used and treated as described previously. […] Serum DHEA, E2 and P4 levels were analyzed by ELISA assays (Alpco Immunoassays).
# denuded GV oocytes = test: ATP and citrate levels in single denuded GV oocytes of DHEA-fed mice
# Text: COCs were collected following superovulation with PMSG. Ovaries were removed and placed in M2 media (Sigma, St. Louis, Mo., USA). COCs were obtained by rupture of antral follicles with a syringe and needle. To collect denuded germinal vesicle (GV) oocytes, the cumulus cells were removed by gentle pipetting. The oviducts were removed from PMSG- and hCG-primed mice. The ampulla of the oviduct was punctured to release the clutch of ovulated oocytes 24 hr after hCG.
# Denuded oocytes or cultured blastocysts were frozen on a glass slide with liquid nitrogen and dried overnight at −35° C. under vacuum. Individual oocytes or blastocysts were extracted in nanoliter volume under oil. Assays were designed to measure ATP, citrate and G6PDH by linking with NAD/NADH or NADP/NADPH which are enzymatically amplified in a cycling reaction allowing products to be measured by fluorometry.
# FVB/NJ mice [3] = test: Serum hormone concentration in DHEA-fed mice (ELISA)
# Text: as §1
# Control and DHEA-fed mice were superovulated with 10 IU pregnant mare serum gonadotropin (PMSG) by i.p. injection. DHEA, estradiol and testosterone serum concentrations were measured 48 hours later. For progesterone concentrations, mice were given an i.p. injection of 10 IU hCG 48 hours after PMSG and blood was collected 24 hours later. Mice were anesthetized with 50 μl ketamine and xylazine (1:1) and blood was collected by cardiac puncture. Serum was separated by centrifugation and stored at −20° C. ELISA assays were used to determine serum hormone concentrations (Alpco, Salem, N.H., USA).
smiles,measurement,setting,value
"C[C@]12CC[C@H](O)CC1=CC[C@@H]1[C@@H]2CC[C@]2(C)C(=O)CC[C@@H]12 [DHEA, dehydroepiandrosterone]",Number of secondary follicles vs regular chow,FVB/NJ mice [1],"more secondary follicles, although not statistically significant"
same,Number of corpora lutea vs regular chow,FVB/NJ mice [1]; significant only at 0.6%,fewer corpora lutea
same,Body fat gain of ovariectomised mice,FVB/NJ mice [2]; 0.6% DHEA diet,decreases this gain in body fat levels
same,Serum levels of E2 and P4 vs control,FVB/NJ mice [2]; DHEA-treated group,equal
same,"Decrease in ATP levels (trend, p=0.096)",denuded GV oocytes; 0.01% DHEA group,four percent
same,"Decrease in ATP levels (trend, p=0.096)",denuded GV oocytes; 0.1% DHEA group,six percent
same,Serum estradiol,FVB/NJ mice [3]; 0.1% and 0.6% DHEA diets,significantly elevated
same,Serum testosterone,FVB/NJ mice [3]; DHEA diet treatment groups,elevated in the treatment groups
same,Serum progesterone (marker of ovulation),"FVB/NJ mice [3]; DHEA diets, 24 hours after hCG",lower in mice exposed to DHEA in a dose-dependent fashion
